Test results: the supplement of paper PMC3334620
Over roughly 33,000 sequences, “E-score (-0.5 to 0.5)” has its median near -0.015; the highest 2% begin near 0.3. This is one part of the list.

biological target: T1, Abf1 (UniProt P14164); assay: PBM E-score (8-mer binding enrichment) (E-score (-0.5 to 0.5)); higher = stronger / more preferred TF binding; conditions: protein concentration: 200 nM; construct: GST-full length
T1 sequence: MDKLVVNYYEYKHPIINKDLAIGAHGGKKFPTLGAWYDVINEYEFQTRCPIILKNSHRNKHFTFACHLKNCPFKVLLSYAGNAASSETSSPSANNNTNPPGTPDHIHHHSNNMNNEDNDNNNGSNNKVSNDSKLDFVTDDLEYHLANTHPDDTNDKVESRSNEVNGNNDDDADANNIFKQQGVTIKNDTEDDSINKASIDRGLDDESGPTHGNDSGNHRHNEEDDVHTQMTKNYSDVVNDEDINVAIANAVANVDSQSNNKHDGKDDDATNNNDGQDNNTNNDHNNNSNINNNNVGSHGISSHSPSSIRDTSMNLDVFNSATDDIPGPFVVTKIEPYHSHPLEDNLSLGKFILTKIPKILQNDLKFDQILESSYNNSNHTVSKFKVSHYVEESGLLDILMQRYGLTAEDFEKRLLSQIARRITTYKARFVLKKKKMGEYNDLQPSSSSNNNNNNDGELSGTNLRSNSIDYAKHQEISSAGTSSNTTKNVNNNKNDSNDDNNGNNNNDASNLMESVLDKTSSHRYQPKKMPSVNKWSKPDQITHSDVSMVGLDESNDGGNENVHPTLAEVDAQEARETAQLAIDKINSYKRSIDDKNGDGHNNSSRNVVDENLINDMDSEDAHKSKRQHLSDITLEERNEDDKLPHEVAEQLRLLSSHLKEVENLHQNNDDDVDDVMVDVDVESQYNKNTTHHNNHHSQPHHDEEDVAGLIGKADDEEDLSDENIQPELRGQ
Procedure, shortened: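 For each ungapped eight-base word taken together with its reverse complement, the Universal PBM Analysis Suite assigned an E-score. Binding data came from GST-tagged yeast transcription factors, applied at about 100-200 nM, on universal all-10-mer Agilent arrays made double-stranded by primer extension. Fluorescent anti-GST marked bound protein, and scans were normalised with masliner.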

Row | Sequence | PBM E-score
1 | GCATGCAC | -0.0549
2 | CATTAAAG | 0.202
3 | CGCCGGCG | -0.128
4 | CGCTAGAC | -0.146
5 | CTTAAAAC | 0.136
6 | ACAACACC | -0.0773
7 | AATCGGGT | 0.193
8 | CAGTCGTA | 0.0431
9 | GTCTCGCA | 0.0198
10 | GAAGTACC | -0.00875
11 | GAAATAGA | 0.0292
12 | GGCCCCCC | -0.48
13 | CTGCGGGC | -0.124
14 | CTGCGGCC | -0.281
15 | GTTCGCAA | 0.0663
16 | AATATCAG | 0.119
17 | ACTATAGT | -0.0916
18 | TATAGAAA | -0.0254
19 | AAAGTACC | -0.0153
20 | CCTCCGCG | -0.263
21 | AGACCGTC | 0.148
22 | ACATAGGC | 0.034
23 | CTTCTACC | -0.189
24 | CCGATGTA | -0.0466
25 | ATAGCCAC | 0.00817

Single values from the entries so far:
Value for CTTCTACC under PBM E-score: -0.189
Value for CGCTAGAC under PBM E-score: -0.146
Value for GAAGTACC under PBM E-score: -0.00875
Value for CTTAAAAC under PBM E-score: 0.136
Value for TATAGAAA under PBM E-score: -0.0254
Value for ACATAGGC under PBM E-score: 0.034
Value for CAGTCGTA under PBM E-score: 0.0431

Next records follow.

Row | Sequence | PBM E-score
26 | ATCGAAAA | 0.0388
27 | CAGAAACG | -0.00582
28 | GCGTCACC | -0.0404
29 | CTGAAATA | 0.00105
30 | AACCTTCC | -0.294
31 | GATGAAAC | 0.0663
32 | CGGGCGCA | -0.146
33 | TAATTACA | 0.157
34 | AAAGTTTA | -0.0558
35 | ATTAGCTG | 0.0666
36 | AAACATGC | -0.145
37 | AGTAACGC | -0.0388
38 | GGTTTACA | 0.0129
39 | AAGGCCTG | -0.26
40 | AGCGAATG | -0.111
41 | ACCATACG | 0.137
42 | AGCGGGGC | 0.00065
43 | CCATAAGA | 0.0147
44 | GAACTAGC | -0.211
45 | CTCATGAG | -0.128
46 | ATCCAAAA | 0.217
47 | GCTTCAGA | -0.157
48 | GGACGACA | 0.299
49 | GGTAGTGA | 0.267
50 | CGCAGAAA | -0.0752

Row | Sequence | PBM E-score
51 | CAGTAAAG | -0.194
52 | AACGTTTC | 0.0528
53 | ATACTACA | 0.2
54 | AACTTAAA | 0.102
55 | CACCAGCG | -0.185
56 | ATTGGCCC | -0.151
57 | CCGCGGAC | 0.0118
58 | AACACTGT | 0.0203
59 | AATGAGAG | -0.114
60 | ACACGGGG | -0.087
61 | AGTCAGTG | -0.029
62 | AGGAAACC | -0.0102
63 | CTTGCCCA | -0.172
64 | GACGGAAA | 0.207
65 | GGGTAAAA | 0.0197
66 | CCGTAAAA | 0.235
67 | AGCAGCCT | -0.282
68 | AAATTTCG | 0.0641
69 | CTCTTACC | -0.0139
70 | GCATTCGA | -0.0434
71 | CAGCAAAA | -0.0386
72 | CCCCCGCG | -0.261
73 | TCGTCTCA | 0.238
74 | CTCCTCTA | -0.126
75 | CACCAACG | -0.0896

Row | Sequence | PBM E-score
76 | AAAGCTAC | -0.00618
77 | ACAGGGGC | -0.194
78 | AAGACAGT | -0.141
79 | AGTAGAAG | 0.0154
80 | CCCCGAAC | -0.187
81 | CAGTGGTA | -0.166
82 | AACAGACT | -0.155
83 | AGCTAGGA | -0.183
84 | AAGGGGAA | 0.00372
85 | GCACCCAC | 0.161
86 | AATCTGGG | -0.0476
87 | ATAAGCGG | 0.00641
88 | CCCGTACC | 0.182
89 | ACTAGGAT | -0.003
90 | GTGGCCGA | -0.203
91 | CAGTTAGC | -0.111
92 | AAACTGAG | -0.185
93 | AACGATCA | 0.24
94 | CACTCAGA | -0.0129
95 | GTGGATTA | 0.0165
96 | AGCAGGAC | 0.0761
97 | CCCCTGAC | -0.134
98 | GATTCTCC | -0.185
99 | ATGACCGG | 0.0406
100 | TATGTGGA | 0.0334

Row | Sequence | PBM E-score
101 | AGTATTTC | 0.209
102 | TAGGAGAA | -0.139
103 | AAATCGGT | -0.108
104 | ACTCGAGC | -0.0898
105 | CCCTTCAA | -0.138
106 | AAACTCGT | 0.0777
107 | ATATGCGG | 0.0202
108 | AGCCGCTC | -0.0277
109 | CTCCTCGC | -0.21
110 | AGGTCGGC | -0.119
111 | AGATCCCT | -0.0124
112 | AACTCTAG | -0.0973
113 | AGCGCCAT | -0.219
114 | ACGGAGTG | 0.0865
115 | CAAGTACC | -0.0939
116 | CACCTTCA | -0.182
117 | ACCCGTGA | 0.0874
118 | AGCCGCTG | -0.143
119 | GGGACCCC | -0.226
120 | AAGGAGGT | -0.241
121 | ACCACACC | -0.0125
122 | CTGCTAAC | -0.0965
123 | AGTTGCCA | -0.0833
124 | CTTCCCTA | -0.119
125 | ACTCCAAA | -0.147

Row | Sequence | PBM E-score
126 | ACCATCCC | -0.155
127 | CTGGTAAC | 0.163
128 | CCTGTCGA | -0.139
129 | AATGACGG | 0.264
130 | CACAGGGG | -0.279
131 | CACTGTGC | -0.117
132 | AAAATGAG | 0.0916
133 | GGGGAAGA | -0.322
134 | ATCGCTAG | 0.289
135 | TGCGAACA | -0.00565
136 | CTCCGGAG | -0.302
137 | TTACATAA | 0.197
138 | CACCCTTC | -0.117
139 | TCCGCGGA | 0.00082
140 | CAACAAAA | 0.0923
141 | GACTTAGA | -0.106
142 | ACATTGAG | -0.169
143 | TGAGGCAA | 0.058
144 | CCCGTAAC | -0.123
145 | AGGAAACG | 0.0642
146 | ACGGTCAG | 0.209
147 | ACTCTATG | -0.19
148 | ACTGTGAA | -0.00521
149 | CAAGGCGA | -0.11
150 | CACTTGCA | -0.0824

Row | Sequence | PBM E-score
151 | GGTGAGAA | 0.0696
152 | ACTCGATC | 0.00233
153 | CAGTTACG | -0.0205
154 | TCCAGAAA | -0.0399
155 | ATGCTATC | 0.186
156 | CTAAGTGA | 0.327
157 | CTCCCGCC | -0.119
158 | AGCAGAGG | -0.206
159 | ACGTTCTC | 0.0453
160 | ATCTGAGG | -0.067
161 | CGACCCAA | 0.0626
162 | GAATTGTC | 0.192
163 | GGGGAACA | -0.264
164 | CGCTTCAC | -0.221
165 | ACTCTTGC | 0.028
166 | AGAGTAGG | -0.0248
167 | ATACCCGA | 0.058
168 | GCATACGC | -0.149
169 | AGGGTCCA | -0.208
170 | AGTCAAAT | 0.0428
171 | ATGATAGG | 0.116
172 | AGCAGTAA | -0.0758

From no. 168 up to 170, copied from above:
Row | Sequence | PBM E-score
168 | GCATACGC | -0.149
169 | AGGGTCCA | -0.208
170 | AGTCAAAT | 0.0428
